Data: article PMC7978383
Substitutions are numbered along the chain they refer to. These are yes or no findings as the source states them, for the method shown. In cells and extracts the contact can be indirect. Some entries that bind do so weakly or less than the wild type. For some of these results: Where a sequence is shown, tags or fusion partners need not be part of it.

The chains behind the UniProt entries cited, without tags or fusion partners.
UniProt P46937: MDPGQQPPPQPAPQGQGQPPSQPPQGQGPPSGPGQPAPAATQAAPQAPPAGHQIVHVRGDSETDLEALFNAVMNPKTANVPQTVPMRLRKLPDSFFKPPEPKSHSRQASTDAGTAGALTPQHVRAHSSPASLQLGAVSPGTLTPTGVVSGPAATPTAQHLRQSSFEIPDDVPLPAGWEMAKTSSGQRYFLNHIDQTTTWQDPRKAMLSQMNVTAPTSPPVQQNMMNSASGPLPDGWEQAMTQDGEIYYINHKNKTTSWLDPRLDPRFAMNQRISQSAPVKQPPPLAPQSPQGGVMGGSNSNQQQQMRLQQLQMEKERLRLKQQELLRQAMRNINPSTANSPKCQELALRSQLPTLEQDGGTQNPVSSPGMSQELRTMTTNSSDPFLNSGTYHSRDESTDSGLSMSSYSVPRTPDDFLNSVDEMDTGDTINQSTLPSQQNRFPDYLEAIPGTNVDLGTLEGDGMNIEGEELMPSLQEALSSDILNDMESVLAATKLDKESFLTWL
UniProt P46938: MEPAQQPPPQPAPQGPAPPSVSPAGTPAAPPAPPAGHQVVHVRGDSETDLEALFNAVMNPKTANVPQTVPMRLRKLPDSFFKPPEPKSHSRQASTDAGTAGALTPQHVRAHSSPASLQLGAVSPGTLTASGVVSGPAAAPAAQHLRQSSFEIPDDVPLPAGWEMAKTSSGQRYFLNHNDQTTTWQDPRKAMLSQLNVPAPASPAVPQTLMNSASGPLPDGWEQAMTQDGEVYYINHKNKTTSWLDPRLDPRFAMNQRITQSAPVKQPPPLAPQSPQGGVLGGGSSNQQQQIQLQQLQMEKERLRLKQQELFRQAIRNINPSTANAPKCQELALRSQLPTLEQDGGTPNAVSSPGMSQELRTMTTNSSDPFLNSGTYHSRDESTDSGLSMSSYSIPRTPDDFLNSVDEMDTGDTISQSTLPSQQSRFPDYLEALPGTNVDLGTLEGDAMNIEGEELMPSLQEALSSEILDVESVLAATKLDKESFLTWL
UniProt Q9GZV5: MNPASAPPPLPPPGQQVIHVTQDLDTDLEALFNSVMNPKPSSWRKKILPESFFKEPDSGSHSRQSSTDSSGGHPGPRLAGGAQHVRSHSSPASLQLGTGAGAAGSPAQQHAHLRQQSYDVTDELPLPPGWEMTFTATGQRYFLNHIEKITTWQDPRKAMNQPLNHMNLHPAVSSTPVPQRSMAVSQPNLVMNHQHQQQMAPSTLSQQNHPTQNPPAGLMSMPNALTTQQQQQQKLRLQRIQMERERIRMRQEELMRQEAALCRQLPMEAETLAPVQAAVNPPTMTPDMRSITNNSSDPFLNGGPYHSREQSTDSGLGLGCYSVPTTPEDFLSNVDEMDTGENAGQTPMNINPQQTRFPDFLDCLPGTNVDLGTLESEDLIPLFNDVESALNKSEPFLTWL

Assays:
[1] = biological target: T1, protein phosphatase magnesium-dependent 1A (PPM1A), tagged, coexpressed (human) (UniProt P35813); assay: co-IP; tagged proteins coexpressed in HEK293 cells; lysis and washes in MLB (20 mM Tris-Cl, 200 mM NaCl, 1% NP-40, pH 7.5); immunoprecipitation with anti-Flag, anti-Myc or anti-HA; immunoblotting
T1 sequence: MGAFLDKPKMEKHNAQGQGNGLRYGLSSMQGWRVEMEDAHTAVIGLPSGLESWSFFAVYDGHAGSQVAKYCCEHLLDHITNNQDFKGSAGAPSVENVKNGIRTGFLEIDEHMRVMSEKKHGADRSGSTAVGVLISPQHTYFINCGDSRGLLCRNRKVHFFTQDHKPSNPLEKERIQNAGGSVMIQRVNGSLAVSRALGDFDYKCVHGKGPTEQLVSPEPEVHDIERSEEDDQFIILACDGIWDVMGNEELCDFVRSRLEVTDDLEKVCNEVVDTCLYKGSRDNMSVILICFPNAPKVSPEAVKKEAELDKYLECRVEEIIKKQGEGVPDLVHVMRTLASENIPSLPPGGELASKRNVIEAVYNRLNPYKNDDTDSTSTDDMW

[2] = biological target: T2, stably expressed PPM1A (human) (UniProt P35813); assay: co-IP; endogenous YAP and stably expressed PPM1A in cell lysate; MLB buffer; immunoblotting
T2 sequence: T1 sequence

[3] = biological target: T3, endogenous PPM1A in regenerating mouse liver (mouse (endogenous in liver)) (UniProt P49443); assay: co-IP; endogenous proteins in mouse liver lysates 2 days post hepatectomy; MLB buffer; anti-PPM1A antibody for endogenous proteins; immunoblotting
T3 sequence: T1 sequence with S52T, K86R, N293S, P299A, C314S, G324V, T376A

Row | Substance | binding [1] | other results
1 | Yes-associated protein (YAP), tagged, coexpressed (from UniProt P46937 1-504) | binds | –
2 | endogenous YAP in HEK293 cells (from UniProt P46937 1-504) | – | binding [2]: binds
3 | endogenous YAP in regenerating mouse liver (from UniProt P46938 1-488) | – | binding [3]: binds
4 | transcriptional coactivator with PDZ-binding motif (TAZ), tagged, coexpressed (from UniProt Q9GZV5 1-400) | binds | –
